Some of the results follow.
Columns and labels:
Test in all cases: glycan array binding signal (z-score within array); higher = stronger binding
Details in all cases: glycan notation: IUPAC condensed, linker removed
[1] = molecular target: Neu5Ac(a2-3)Gal(b1-4)GlcNAc(b1-6)GalNAc
Method in brief: (§1)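 The Consortium for Functional Glycomics database supplied 3228 glycan arrays, of which those lacking an available protein sequence were dropped. The binding signal, a within-array Z-score, was averaged across arrays of the same protein sequence and across linkers. Negative scores can be read as non-binding.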

[2] = molecular target: Neu5Ac(a2-3)Gal(b1-4)GlcNAc(b1-6)[Gal(b1-3)]GalNAc
Method in brief: as §1

[3] = molecular target: Neu5Ac(a2-3)Gal(b1-4)GlcNAc(b1-6)[Neu5Ac(a2-3)Gal(b1-3)]GalNAc
Method in brief: as §1

[4] = molecular target: Neu5Ac(a2-3)Gal(b1-4)GlcNAc6S
Method in brief: as §1

[5] = molecular target: Neu5Ac(a2-3)Gal(b1-4)[Fuc(a1-3)]GlcNAc
Method in brief: as §1

[6] = molecular target: Neu5Ac(a2-3)Gal(b1-4)[Fuc(a1-3)]GlcNAc(b1-2)Man
Method in brief: as §1

[7] = molecular target: Neu5Ac(a2-3)Gal(b1-4)[Fuc(a1-3)]GlcNAc(b1-3)Gal
Method in brief: as §1

[8] = molecular target: Neu5Ac(a2-3)Gal(b1-4)[Fuc(a1-3)]GlcNAc(b1-3)Gal(b1-4)GlcNAc
Method in brief: as §1

[9] = molecular target: Neu5Ac(a2-3)Gal(b1-4)[Fuc(a1-3)]GlcNAc(b1-3)Gal(b1-4)[Fuc(a1-3)]GlcNAc(b1-3)Gal(b1-4)[Fuc(a1-3)]GlcNAc
Method in brief: as §1

[10] = molecular target: Neu5Ac(a2-3)Gal(b1-4)[Fuc(a1-3)]GlcNAc(b1-3)GalNAc
Method in brief: as §1

[11] = molecular target: Neu5Ac(a2-3)Gal(b1-4)[Fuc(a1-3)]GlcNAc(b1-6)[Gal(b1-3)]GalNAc
Method in brief: as §1

[12] = molecular target: Neu5Ac(a2-3)Gal(b1-4)[Fuc(a1-3)]GlcNAc(b1-6)[Neu5Ac(a2-3)Gal(b1-3)]GalNAc
Method in brief: as §1

[13] = molecular target: Neu5Ac(a2-3)Gal(b1-4)[Fuc(a1-3)]GlcNAc6S
Method in brief: as §1

[14] = molecular target: Neu5Ac(a2-3)Gal6S(b1-4)GlcNAc
Method in brief: as §1

[15] = molecular target: Neu5Ac(a2-3)Gal6S(b1-4)[Fuc(a1-3)]GlcNAc
Method in brief: as §1

Neu5Ac(a2-3)GalNAc = molecular target: Neu5Ac(a2-3)GalNAc
Method in brief: as §1

[16] = molecular target: Neu5Ac(a2-3)GalNAc(b1-4)GlcNAc
Method in brief: as §1

[17] = molecular target: Neu5Ac(a2-3)[GalNAc(b1-4)]Gal(b1-4)Glc
Method in brief: as §1

[18] = molecular target: Neu5Ac(a2-3)[GalNAc(b1-4)]Gal(b1-4)GlcNAc
Method in brief: as §1

[19] = molecular target: Neu5Ac(a2-3)[GalNAc(b1-4)]Gal(b1-4)GlcNAc(b1-3)GalNAc
Method in brief: as §1

[20] = molecular target: Neu5Ac(a2-3)[Neu5Ac(a2-6)]GalNAc
Method in brief: as §1

Neu5Ac(a2-6)Gal = molecular target: Neu5Ac(a2-6)Gal
Method in brief: as §1

[21] = molecular target: Neu5Ac(a2-6)Gal(b1-3)GlcNAc(b1-3)[Gal(b1-4)GlcNAc(b1-6)]Gal(b1-4)Glc
Method in brief: as §1

Neu5Ac(a2-6)Gal(b1-4)Glc = molecular target: Neu5Ac(a2-6)Gal(b1-4)Glc
Method in brief: as §1

[22] = molecular target: Neu5Ac(a2-6)Gal(b1-4)GlcNAc
Method in brief: as §1

[23] = molecular target: Neu5Ac(a2-6)Gal(b1-4)GlcNAc(b1-2)Man
Method in brief: as §1

[24] = molecular target: Neu5Ac(a2-6)Gal(b1-4)GlcNAc(b1-2)Man(a1-3)Man(b1-4)GlcNAc(b1-4)GlcNAc
Method in brief: as §1

[25] = molecular target: Neu5Ac(a2-6)Gal(b1-4)GlcNAc(b1-2)Man(a1-3)[Gal(b1-4)GlcNAc(b1-2)Man(a1-6)]Man(b1-4)GlcNAc(b1-4)GlcNAc
Method in brief: as §1

[26] = molecular target: Neu5Ac(a2-6)Gal(b1-4)GlcNAc(b1-2)Man(a1-3)[GlcNAc(b1-4)][Neu5Ac(a2-6)Gal(b1-4)GlcNAc(b1-2)Man(a1-6)]Man(b1-4)GlcNAc(b1-4)GlcNAc
Method in brief: as §1

[27] = molecular target: Neu5Ac(a2-6)Gal(b1-4)GlcNAc(b1-2)Man(a1-3)[Man(a1-6)]Man(b1-4)GlcNAc(b1-4)GlcNAc
Method in brief: as §1

[28] = molecular target: Neu5Ac(a2-6)Gal(b1-4)GlcNAc(b1-2)Man(a1-3)[Neu5Ac(a2-3)Gal(b1-4)GlcNAc(b1-2)Man(a1-6)]Man(b1-4)GlcNAc(b1-4)GlcNAc
Method in brief: as §1

[29] = molecular target: Neu5Ac(a2-6)Gal(b1-4)GlcNAc(b1-2)Man(a1-3)[Neu5Ac(a2-6)Gal(b1-4)GlcNAc(b1-2)Man(a1-6)]Man(b1-4)GlcNAc(b1-4)GlcNAc
Method in brief: as §1

[30] = molecular target: Neu5Ac(a2-6)Gal(b1-4)GlcNAc(b1-2)Man(a1-3)[Neu5Ac(a2-6)Gal(b1-4)GlcNAc(b1-2)Man(a1-6)]Man(b1-4)GlcNAc(b1-4)[Fuc(a1-6)]GlcNAc
Method in brief: as §1

[31] = molecular target: Neu5Ac(a2-6)Gal(b1-4)GlcNAc(b1-2)Man(a1-6)Man(b1-4)GlcNAc(b1-4)GlcNAc
Method in brief: as §1

[32] = molecular target: Neu5Ac(a2-6)Gal(b1-4)GlcNAc(b1-2)Man(a1-6)[Gal(b1-4)GlcNAc(b1-2)Man(a1-3)]Man(b1-4)GlcNAc(b1-4)GlcNAc
Method in brief: as §1

[33] = molecular target: Neu5Ac(a2-6)Gal(b1-4)GlcNAc(b1-2)Man(a1-6)[GlcNAc(b1-2)Man(a1-3)]Man(b1-4)GlcNAc(b1-4)GlcNAc
Method in brief: as §1

[34] = molecular target: Neu5Ac(a2-6)Gal(b1-4)GlcNAc(b1-2)Man(a1-6)[Man(a1-3)]Man(b1-4)GlcNAc(b1-4)GlcNAc
Method in brief: as §1

[35] = molecular target: Neu5Ac(a2-6)Gal(b1-4)GlcNAc(b1-2)[Neu5Ac(a2-6)Gal(b1-4)GlcNAc(b1-4)]Man(a1-3)[GlcNAc(b1-4)][Neu5Ac(a2-6)Gal(b1-4)GlcNAc(b1-2)[Neu5Ac(a2-6)Gal(b1-4)GlcNAc(b1-6)]Man(a1-6)]Man(b1-4)GlcNAc(b1-4)GlcNAc
Method in brief: as §1

[36] = molecular target: Neu5Ac(a2-6)Gal(b1-4)GlcNAc(b1-2)[Neu5Ac(a2-6)Gal(b1-4)GlcNAc(b1-4)]Man(a1-3)[GlcNAc(b1-4)][Neu5Ac(a2-6)Gal(b1-4)GlcNAc(b1-4)Man(a1-6)]Man(b1-4)GlcNAc(b1-4)GlcNAc
Method in brief: as §1

[37] = molecular target: Neu5Ac(a2-6)Gal(b1-4)GlcNAc(b1-2)[Neu5Ac(a2-6)Gal(b1-4)GlcNAc(b1-6)]Man(a1-6)[Neu5Ac(a2-6)Gal(b1-4)GlcNAc(b1-2)Man(a1-3)][GlcNAc(b1-4)]Man(b1-4)GlcNAc(b1-4)GlcNAc
Method in brief: as §1

[38] = molecular target: Neu5Ac(a2-6)Gal(b1-4)GlcNAc(b1-3)Gal(b1-3)GlcNAc
Method in brief: as §1

[39] = molecular target: Neu5Ac(a2-6)Gal(b1-4)GlcNAc(b1-3)Gal(b1-4)GlcNAc
Method in brief: as §1

[40] = molecular target: Neu5Ac(a2-6)Gal(b1-4)GlcNAc(b1-3)Gal(b1-4)GlcNAc(b1-2)Man(a1-3)[Neu5Ac(a2-6)Gal(b1-4)GlcNAc(b1-3)Gal(b1-4)GlcNAc(b1-2)Man(a1-6)]GalNAc
Method in brief: as §1

[41] = molecular target: Neu5Ac(a2-6)Gal(b1-4)GlcNAc(b1-3)Gal(b1-4)GlcNAc(b1-3)Gal(b1-4)GlcNAc
Method in brief: as §1

[42] = molecular target: Neu5Ac(a2-6)Gal(b1-4)GlcNAc(b1-3)Gal(b1-4)GlcNAc(b1-3)Gal(b1-4)GlcNAc(b1-2)Man(a1-3)[Neu5Ac(a2-6)Gal(b1-4)GlcNAc(b1-3)Gal(b1-4)GlcNAc(b1-3)Gal(b1-4)GlcNAc(b1-2)Man(a1-6)]GalNAc
Method in brief: as §1

B1: OS9 (Arabidopsis thaliana) (protein)
chain: MRGSHHHHHHGMASMTGGQQMGRDLYDDDDKSRLQIFPAHLVGTFSRNNREPKYKIEFLPEDSPFHPGDNLESMVMLDKHGNRFLCYLPKEEKATSGWTSSQQNISTVMMETQQLVKLKTPDELLQPLSEKCLFRQEGWWSYEFCHQKYVRQLHVEDENKIVQEFFLGTFDPEATAAFNQTVSDASTDASQRYHSHVYTNGTTCDLTGSPREVEVRFVCAETRAMVTSITELSTCKYALTVQCPTLCKHPLFQLEKPVSHTIHCNAIPVEEDATRNKEEQAVDESPKMIADS
glycan array binding signal (z-score) [1]: -0.883 | glycan array binding signal (z-score) [2]: -0.157 | glycan array binding signal (z-score) [3]: -0.353 | glycan array binding signal (z-score) [4]: -0.226 | glycan array binding signal (z-score) [5]: -0.32 | glycan array binding signal (z-score) [6]: 0.868 | glycan array binding signal (z-score) [7]: -0.346 | glycan array binding signal (z-score) [8]: -0.726 | glycan array binding signal (z-score) [9]: 0.045 | glycan array binding signal (z-score) [10]: 0.633 | glycan array binding signal (z-score) [11]: -0.673 | glycan array binding signal (z-score) [12]: -0.269 | glycan array binding signal (z-score) [13]: 2.52 | glycan array binding signal (z-score) [14]: -0.966 | glycan array binding signal (z-score) [15]: -0.413 | glycan array binding signal (z-score) (Neu5Ac(a2-3)GalNAc): 0.064 | glycan array binding signal (z-score) [16]: -0.344 | glycan array binding signal (z-score) [17]: -0.249 | glycan array binding signal (z-score) [18]: -0.562 | glycan array binding signal (z-score) [19]: -0.75 | glycan array binding signal (z-score) [20]: 0.459 | glycan array binding signal (z-score) (Neu5Ac(a2-6)Gal): -1.06 | glycan array binding signal (z-score) [21]: -0.523 | glycan array binding signal (z-score) (Neu5Ac(a2-6)Gal(b1-4)Glc): -0.102 | glycan array binding signal (z-score) [22]: -0.55 | glycan array binding signal (z-score) [23]: -0.824 | glycan array binding signal (z-score) [24]: 6.74 | glycan array binding signal (z-score) [25]: -0.814 | glycan array binding signal (z-score) [26]: -0.429 | glycan array binding signal (z-score) [27]: -0.737 | glycan array binding signal (z-score) [28]: -0.742 | glycan array binding signal (z-score) [29]: -0.5 | glycan array binding signal (z-score) [30]: 0.382 | glycan array binding signal (z-score) [31]: -0.276 | glycan array binding signal (z-score) [32]: -0.208 | glycan array binding signal (z-score) [33]: -0.096 | glycan array binding signal (z-score) [34]: -0.057 | glycan array binding signal (z-score) [35]: -0.275 | glycan array binding signal (z-score) [36]: -0.592 | glycan array binding signal (z-score) [37]: 0.585 | glycan array binding signal (z-score) [38]: 0.786 | glycan array binding signal (z-score) [39]: -0.376 | glycan array binding signal (z-score) [40]: -0.47 | glycan array binding signal (z-score) [41]: -1.18 | glycan array binding signal (z-score) [42]: -0.41
